Two substances from PMC8100126 can be followed below.

Protein sequences, listed by entry. Tags and fused reporters are not part of them.
UniProt P35222: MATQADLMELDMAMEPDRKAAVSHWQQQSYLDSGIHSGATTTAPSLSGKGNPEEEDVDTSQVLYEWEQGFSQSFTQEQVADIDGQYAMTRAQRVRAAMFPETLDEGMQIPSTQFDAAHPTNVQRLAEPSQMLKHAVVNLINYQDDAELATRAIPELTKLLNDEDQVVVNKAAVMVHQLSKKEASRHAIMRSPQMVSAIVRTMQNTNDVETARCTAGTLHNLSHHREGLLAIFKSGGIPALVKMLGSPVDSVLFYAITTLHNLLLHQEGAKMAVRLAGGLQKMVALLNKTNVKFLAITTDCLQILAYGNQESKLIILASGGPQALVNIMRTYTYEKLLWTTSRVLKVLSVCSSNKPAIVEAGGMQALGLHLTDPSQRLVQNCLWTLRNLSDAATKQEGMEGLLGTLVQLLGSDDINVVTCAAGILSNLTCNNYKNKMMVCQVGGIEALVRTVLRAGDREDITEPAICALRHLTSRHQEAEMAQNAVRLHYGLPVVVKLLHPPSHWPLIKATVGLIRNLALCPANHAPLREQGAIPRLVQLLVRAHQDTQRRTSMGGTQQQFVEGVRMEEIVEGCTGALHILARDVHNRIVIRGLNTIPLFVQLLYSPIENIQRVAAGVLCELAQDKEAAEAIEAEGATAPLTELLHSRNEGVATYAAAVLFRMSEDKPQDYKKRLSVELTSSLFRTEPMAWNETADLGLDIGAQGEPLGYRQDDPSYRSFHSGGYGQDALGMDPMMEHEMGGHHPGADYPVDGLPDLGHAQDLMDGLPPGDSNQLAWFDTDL
UniProt P48431: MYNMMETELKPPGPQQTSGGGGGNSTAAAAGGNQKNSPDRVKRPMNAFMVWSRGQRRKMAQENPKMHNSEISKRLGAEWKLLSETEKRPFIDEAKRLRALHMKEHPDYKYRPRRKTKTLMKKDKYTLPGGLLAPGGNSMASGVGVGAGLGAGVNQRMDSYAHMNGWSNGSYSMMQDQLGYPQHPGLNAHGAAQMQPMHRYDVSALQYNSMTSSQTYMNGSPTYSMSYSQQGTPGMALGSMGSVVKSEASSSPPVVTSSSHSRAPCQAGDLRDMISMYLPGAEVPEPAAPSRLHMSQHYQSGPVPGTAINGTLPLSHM

Results are given in words; binding and its absence hold for the method and conditions named. Binding seen in cells or lysates may run through a third protein. Some results given as binding are weak or reduced against the parent protein; the word gives no strength.

Assay [1] has as its target β-catenin (human (endogenous in SW480 and SW620)) (UniProt P35222). Kind of assay: co-IP; endogenous proteins; 2 μg anti-SOX2 or anti-β-catenin antibody added to 1 mg protein lysate (cytoplasmic and nuclear fractions of SW480 and SW620 cells), overnight at 4 °C; protein A/G beads; non-specific IgG as negative control; Western blot.
Assay [2] has as its target Sex-determining region Y-box2 (SOX2) (human (endogenous in SW480 and SW620)) (UniProt P48431). The assay is described as above.

Consider “Sex-determining region Y-box2 (SOX2) (from UniProt P48431 1-317)”, for which the binding result in assay [1] is given as “binds”.

In the case of β-catenin (from UniProt P35222 1-781), the binding result in assay [2] is listed as “binds”.
